The list shows a part of the results.
What follows are targets tested with COc1ccc(Cn2ccc3ccc(C(=O)NO)cc32)cc1 (assay: dose-dependent thermal stabilisation call (2D-TPP, DLPTP, 10% FDR) (binary (1 = stabilised)); higher = stabilised by the compound). Conditions: system: HL-60 intact cells; concentration range 0.04-10 µM.

Amino acid sequences for entries named in this document (tags omitted). A change or cut given only in a name is not applied to a line headed by its entry.
UniProt Q96EU6: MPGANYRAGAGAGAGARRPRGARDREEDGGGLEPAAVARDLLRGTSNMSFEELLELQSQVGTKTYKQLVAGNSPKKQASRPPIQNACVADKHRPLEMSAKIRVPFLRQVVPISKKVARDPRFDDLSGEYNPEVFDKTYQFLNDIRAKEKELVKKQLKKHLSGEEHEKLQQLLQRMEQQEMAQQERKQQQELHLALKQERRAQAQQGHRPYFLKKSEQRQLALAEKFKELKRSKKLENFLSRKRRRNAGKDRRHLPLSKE
UniProt O43598: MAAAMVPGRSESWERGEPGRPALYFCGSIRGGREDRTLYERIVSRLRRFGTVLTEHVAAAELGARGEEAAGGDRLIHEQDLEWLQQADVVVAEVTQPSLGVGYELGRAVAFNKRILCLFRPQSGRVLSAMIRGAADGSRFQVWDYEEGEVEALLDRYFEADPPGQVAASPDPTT
UniProt Q9NWH2: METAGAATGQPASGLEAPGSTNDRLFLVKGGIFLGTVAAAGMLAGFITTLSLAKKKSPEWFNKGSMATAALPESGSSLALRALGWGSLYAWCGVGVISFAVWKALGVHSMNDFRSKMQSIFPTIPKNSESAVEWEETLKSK
UniProt Q01518, whole entry: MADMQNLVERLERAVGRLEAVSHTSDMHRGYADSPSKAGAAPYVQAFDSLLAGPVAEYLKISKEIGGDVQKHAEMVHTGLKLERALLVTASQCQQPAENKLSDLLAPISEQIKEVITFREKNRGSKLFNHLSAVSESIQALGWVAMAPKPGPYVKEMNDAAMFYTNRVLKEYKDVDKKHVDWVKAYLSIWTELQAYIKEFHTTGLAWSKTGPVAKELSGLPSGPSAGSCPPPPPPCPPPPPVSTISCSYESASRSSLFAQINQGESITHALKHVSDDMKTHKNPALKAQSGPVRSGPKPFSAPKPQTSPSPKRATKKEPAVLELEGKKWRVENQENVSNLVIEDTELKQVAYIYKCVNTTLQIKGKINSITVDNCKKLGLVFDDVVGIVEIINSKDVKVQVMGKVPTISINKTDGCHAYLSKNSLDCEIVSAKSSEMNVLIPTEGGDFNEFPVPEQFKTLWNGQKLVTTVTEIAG
UniProt Q4ZIN3: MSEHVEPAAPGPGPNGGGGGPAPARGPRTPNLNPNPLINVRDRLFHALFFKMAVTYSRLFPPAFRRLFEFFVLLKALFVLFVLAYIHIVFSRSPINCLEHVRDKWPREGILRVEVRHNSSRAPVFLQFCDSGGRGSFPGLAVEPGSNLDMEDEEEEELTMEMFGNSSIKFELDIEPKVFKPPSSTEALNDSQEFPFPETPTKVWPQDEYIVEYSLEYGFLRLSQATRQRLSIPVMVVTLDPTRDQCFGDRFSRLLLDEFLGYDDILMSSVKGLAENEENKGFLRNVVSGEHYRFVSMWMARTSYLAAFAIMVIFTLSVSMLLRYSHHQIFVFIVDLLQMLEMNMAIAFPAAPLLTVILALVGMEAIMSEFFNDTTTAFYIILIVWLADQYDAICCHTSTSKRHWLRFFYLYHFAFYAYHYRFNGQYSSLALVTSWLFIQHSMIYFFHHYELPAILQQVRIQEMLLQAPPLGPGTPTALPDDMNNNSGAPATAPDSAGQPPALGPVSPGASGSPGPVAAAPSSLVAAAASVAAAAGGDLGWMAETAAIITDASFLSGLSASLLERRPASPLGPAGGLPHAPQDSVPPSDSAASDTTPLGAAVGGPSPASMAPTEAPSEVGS
UniProt P78312: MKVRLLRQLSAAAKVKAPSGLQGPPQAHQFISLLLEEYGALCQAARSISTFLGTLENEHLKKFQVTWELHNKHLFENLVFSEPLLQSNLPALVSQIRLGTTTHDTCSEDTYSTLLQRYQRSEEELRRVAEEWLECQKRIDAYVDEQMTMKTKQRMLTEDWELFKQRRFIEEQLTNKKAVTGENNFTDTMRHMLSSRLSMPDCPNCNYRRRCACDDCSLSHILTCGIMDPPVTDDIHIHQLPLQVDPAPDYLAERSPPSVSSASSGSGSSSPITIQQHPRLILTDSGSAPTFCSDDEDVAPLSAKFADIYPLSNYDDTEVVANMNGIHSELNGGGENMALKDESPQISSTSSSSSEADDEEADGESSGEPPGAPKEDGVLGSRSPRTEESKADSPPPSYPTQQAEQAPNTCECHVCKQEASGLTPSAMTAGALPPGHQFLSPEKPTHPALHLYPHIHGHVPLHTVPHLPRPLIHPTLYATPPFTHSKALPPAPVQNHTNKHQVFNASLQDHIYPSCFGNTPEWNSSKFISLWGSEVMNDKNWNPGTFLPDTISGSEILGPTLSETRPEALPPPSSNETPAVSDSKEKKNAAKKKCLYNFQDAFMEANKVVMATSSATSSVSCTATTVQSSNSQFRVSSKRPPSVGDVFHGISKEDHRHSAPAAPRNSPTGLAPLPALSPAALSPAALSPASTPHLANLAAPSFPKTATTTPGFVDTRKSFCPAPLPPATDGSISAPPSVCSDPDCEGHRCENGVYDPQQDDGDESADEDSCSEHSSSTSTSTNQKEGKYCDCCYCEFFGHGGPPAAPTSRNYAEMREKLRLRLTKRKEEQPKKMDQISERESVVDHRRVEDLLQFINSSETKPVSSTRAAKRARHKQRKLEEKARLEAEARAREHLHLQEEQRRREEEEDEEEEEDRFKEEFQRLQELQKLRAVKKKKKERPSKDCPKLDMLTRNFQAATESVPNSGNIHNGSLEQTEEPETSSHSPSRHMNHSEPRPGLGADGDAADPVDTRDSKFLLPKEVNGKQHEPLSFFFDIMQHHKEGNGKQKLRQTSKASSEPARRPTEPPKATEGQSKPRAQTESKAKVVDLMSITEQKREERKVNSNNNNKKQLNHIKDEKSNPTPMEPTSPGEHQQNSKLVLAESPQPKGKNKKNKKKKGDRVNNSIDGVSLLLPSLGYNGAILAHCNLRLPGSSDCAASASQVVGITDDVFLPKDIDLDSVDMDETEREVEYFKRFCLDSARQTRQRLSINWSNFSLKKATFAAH
UniProt Q3KRA6: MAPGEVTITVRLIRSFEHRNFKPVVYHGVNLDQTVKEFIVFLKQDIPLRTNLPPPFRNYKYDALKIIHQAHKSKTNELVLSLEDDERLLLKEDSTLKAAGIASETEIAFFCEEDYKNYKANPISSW
UniProt Q8WUY1: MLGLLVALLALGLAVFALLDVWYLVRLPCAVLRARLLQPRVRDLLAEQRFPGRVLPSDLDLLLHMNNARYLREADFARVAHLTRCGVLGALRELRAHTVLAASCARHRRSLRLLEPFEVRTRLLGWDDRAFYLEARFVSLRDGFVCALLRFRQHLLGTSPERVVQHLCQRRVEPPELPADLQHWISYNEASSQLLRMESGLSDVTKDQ
UniProt Q96BD8: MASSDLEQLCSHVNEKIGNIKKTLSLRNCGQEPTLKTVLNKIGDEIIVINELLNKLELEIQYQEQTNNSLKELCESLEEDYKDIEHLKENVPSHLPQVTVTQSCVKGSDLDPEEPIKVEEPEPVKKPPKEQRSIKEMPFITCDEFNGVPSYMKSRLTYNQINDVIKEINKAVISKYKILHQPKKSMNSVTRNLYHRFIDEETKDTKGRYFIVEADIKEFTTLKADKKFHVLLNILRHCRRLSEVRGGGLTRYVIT
UniProt Q9NRP2: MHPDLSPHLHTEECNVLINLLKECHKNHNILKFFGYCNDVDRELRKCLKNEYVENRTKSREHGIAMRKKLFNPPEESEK
UniProt Q86U38: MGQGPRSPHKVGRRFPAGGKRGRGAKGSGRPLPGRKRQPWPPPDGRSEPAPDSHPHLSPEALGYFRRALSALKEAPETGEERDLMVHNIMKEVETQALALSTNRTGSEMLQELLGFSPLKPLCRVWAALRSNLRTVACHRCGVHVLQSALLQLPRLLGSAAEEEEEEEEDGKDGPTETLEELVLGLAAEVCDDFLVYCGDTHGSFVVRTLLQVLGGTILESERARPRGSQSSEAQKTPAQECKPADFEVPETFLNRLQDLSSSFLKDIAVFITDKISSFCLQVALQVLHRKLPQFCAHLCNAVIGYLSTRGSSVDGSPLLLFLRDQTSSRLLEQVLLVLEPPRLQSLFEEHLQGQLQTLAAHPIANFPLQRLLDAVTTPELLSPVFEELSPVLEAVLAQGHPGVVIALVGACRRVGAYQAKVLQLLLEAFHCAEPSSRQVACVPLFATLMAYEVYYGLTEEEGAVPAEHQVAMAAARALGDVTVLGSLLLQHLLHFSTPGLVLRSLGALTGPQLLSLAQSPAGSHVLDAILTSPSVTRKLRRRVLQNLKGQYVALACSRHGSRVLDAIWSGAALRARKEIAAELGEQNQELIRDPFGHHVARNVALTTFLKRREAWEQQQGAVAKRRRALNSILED
UniProt Q96SY0, whole entry: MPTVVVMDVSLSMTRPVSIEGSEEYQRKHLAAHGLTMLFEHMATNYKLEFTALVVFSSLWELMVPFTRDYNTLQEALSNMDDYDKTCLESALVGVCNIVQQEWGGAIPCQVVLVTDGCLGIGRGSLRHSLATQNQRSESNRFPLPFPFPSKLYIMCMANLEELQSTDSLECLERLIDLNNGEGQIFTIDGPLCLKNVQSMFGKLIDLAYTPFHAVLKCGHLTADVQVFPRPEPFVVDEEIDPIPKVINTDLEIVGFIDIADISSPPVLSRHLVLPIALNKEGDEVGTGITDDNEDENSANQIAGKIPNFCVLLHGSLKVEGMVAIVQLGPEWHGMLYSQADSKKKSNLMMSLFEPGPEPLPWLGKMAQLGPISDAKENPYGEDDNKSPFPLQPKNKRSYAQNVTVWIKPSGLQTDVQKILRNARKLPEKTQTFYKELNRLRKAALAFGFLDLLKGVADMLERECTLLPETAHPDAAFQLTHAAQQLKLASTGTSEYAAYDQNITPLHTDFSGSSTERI
UniProt Q96FT9: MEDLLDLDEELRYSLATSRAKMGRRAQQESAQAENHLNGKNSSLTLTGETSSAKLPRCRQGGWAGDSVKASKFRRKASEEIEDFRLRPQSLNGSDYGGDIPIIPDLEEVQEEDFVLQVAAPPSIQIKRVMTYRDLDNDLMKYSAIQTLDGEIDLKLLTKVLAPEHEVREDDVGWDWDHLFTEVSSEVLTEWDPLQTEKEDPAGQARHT
UniProt Q9Y5B6: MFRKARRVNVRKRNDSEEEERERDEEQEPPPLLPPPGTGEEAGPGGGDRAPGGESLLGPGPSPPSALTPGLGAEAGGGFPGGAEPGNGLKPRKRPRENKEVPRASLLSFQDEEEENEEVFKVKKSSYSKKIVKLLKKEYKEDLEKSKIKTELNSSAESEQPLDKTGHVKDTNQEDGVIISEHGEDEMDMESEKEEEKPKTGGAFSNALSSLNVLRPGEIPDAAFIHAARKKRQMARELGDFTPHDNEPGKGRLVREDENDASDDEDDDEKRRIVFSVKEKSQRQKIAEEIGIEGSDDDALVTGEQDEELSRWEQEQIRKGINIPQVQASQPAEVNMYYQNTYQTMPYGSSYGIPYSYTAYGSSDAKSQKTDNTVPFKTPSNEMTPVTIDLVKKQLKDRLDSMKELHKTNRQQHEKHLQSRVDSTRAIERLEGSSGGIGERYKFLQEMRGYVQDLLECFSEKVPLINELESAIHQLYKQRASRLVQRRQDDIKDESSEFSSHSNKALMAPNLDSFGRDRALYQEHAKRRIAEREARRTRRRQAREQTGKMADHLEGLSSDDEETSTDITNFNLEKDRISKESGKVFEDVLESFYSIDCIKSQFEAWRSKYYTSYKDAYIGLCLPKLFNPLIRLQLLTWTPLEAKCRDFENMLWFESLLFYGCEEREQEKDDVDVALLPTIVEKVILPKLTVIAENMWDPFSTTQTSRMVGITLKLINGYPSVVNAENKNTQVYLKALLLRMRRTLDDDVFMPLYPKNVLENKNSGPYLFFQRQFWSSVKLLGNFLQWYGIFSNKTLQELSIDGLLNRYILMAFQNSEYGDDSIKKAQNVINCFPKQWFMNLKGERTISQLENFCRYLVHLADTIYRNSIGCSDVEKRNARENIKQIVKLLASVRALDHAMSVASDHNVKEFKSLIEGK
UniProt P20810: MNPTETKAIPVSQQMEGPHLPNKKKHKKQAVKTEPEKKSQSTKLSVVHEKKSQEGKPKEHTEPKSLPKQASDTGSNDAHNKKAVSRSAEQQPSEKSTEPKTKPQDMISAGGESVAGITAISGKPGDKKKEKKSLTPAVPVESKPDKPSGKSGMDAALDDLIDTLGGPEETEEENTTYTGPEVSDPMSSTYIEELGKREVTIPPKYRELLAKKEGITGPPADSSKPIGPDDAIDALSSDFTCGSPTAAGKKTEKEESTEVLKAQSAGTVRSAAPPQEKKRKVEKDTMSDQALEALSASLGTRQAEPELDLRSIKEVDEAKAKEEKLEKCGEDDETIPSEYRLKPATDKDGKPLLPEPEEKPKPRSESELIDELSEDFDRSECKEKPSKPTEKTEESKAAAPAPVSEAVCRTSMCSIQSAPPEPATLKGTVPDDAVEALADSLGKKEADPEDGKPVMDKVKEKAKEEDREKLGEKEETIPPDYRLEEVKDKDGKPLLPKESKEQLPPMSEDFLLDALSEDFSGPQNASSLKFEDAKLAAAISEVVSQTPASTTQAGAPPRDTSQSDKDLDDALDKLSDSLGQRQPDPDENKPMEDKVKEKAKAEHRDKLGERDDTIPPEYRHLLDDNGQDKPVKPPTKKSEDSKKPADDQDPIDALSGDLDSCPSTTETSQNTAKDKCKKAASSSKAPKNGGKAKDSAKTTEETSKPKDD

Row | Target | dose-dependent thermal stabilisation call
1 | C1ORF123 (UniProt Q9NWV4) | inactive: 0
2 | C4ORF32 (UniProt Q8N8J7) | inactive: 0
3 | CBARA1 (UniProt Q9BPX6) | inactive: 0
4 | C6ORF153 (UniProt Q96EU6) | inactive: 0
5 | CASP6 (UniProt P55212) | inactive: 0
6 | C6ORF108 (UniProt O43598) | inactive: 0
7 | C6ORF35 (UniProt Q9NWH2) | inactive: 0
8 | CAP1 (UniProt Q01518) | inactive: 0
9 | C19ORF63 (UniProt Q5UCC4) | inactive: 0
10 | C16ORF14 (UniProt Q9BUT9) | inactive: 0
11 | C15ORF41 (UniProt Q9Y2V0) | inactive: 0
12 | C8ORF41 (UniProt Q6NXR4) | inactive: 0
13 | C1GALT1 (UniProt Q9NS00) | inactive: 0
14 | C9ORF123 (UniProt Q96GE9) | inactive: 0
15 | C19ORF6 (UniProt Q4ZIN3) | inactive: 0
16 | C3ORF21 (UniProt Q8NBI6) | inactive: 0
17 | CAPN1 (UniProt P07384) | inactive: 0
18 | C9ORF85 (UniProt Q96MD7) | inactive: 0
19 | C4ORF8 (UniProt P78312) | inactive: 0

Row | Target | dose-dependent thermal stabilisation call
20 | C2ORF76 (UniProt Q3KRA6) | inactive: 0
21 | C15ORF23 (UniProt Q9Y448) | inactive: 0
22 | C19ORF59 (UniProt Q8IX19) | active: 1
23 | C8ORF55 (UniProt Q8WUY1) | inactive: 0
24 | CC2D1A (UniProt Q6P1N0) | inactive: 0
25 | C7ORF30 (UniProt Q96EH3) | inactive: 0
26 | C18ORF24 (UniProt Q96BD8) | inactive: 0
27 | CAB39 (UniProt Q9Y376) | inactive: 0
28 | C16ORF61 (UniProt Q9NRP2) | inactive: 0
29 | C14ORF21 (UniProt Q86U38) | inactive: 0
30 | C15ORF44 (UniProt Q96SY0) | inactive: 0
31 | CAMK1 (UniProt Q14012) | inactive: 0
32 | C14ORF179 (UniProt Q96FT9) | inactive: 0
33 | C21ORF66 (UniProt Q9Y5B6) | inactive: 0
34 | CAPZA1 (UniProt P52907) | inactive: 0
35 | CALM1 (UniProt P0DP23) | inactive: 0
36 | C3ORF31 (UniProt Q96BW9) | inactive: 0
37 | CAST (UniProt P20810) | inactive: 0
38 | C18ORF32 (UniProt Q8TCD1) | inactive: 0

Some of the entries so far, tab-delimited:
Row	Target	dose-dependent thermal stabilisation call
23	C8ORF55 (UniProt Q8WUY1)	inactive: 0
37	CAST (UniProt P20810)	inactive: 0

Reference: the supplement of paper PMC7666118
